Reference: PubChem BioAssay AID504408 (Broad Institute, 2011)
The campaign covered roughly 300,000 compounds. About 5,200 (1.7%) were called active. Inconclusive results, whose numbers are uncertain, are shown with a selection of clear calls.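 How the source made its calls: active means mean replicate activation of at least 50% with a set share of replicates each reaching 50%; inconclusive means only one of those two conditions met; inactive means mean below 50% and too few replicates reaching it.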

Assay: HSF-1 activators, primary screen, NIH3T3-HGL cells, MG132 stress, luminescence, single point (AID 504408);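 further: 0% = median of the neutral control wells and 100% = twice that signal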
Conditions: NIH3T3-HGL HSF-1 luciferase reporter, MG132, 8 h; at 9 µM; hits give high values; 100% = twice DMSO control signal

| SMILES | activation |
| --- | --- |
| O=C(NCc1ccccc1)c1nnc(CS(=O)(=O)c2ccccc2)o1 | inconclusive: 52.2% |
| Cc1cc(C)c(S(=O)(=O)n2ccc(-c3ccc(OCCN(C)c4ccccn4)cc3)n2)c(C)c1 | inconclusive: 52.2% |
| Cc1nc(-c2ccc(NC(=O)C3CCCCC3)cc2)cs1 | active: 56.8% |
| Fc1cccc(-c2nnn3c2nc(Cl)c2ccccc23)c1 | active: 454% |
| CN(C)/C=C(\C#N)C(=O)Nc1ccccc1 | inconclusive: 56% |
| Cn1c(SCc2ccccc2C#N)nc2ccccc2c1=O | inconclusive: 56.6% |
| c1ccc(CCNc2nc3ccccc3s2)cc1 | active: 55.9% |
| CC1(c2nnc(Cc3ccccc3)o2)CC(c2ccccc2F)=NO1 (configuration not stated) | inactive: 4.53% |
| CCNC(=S)Nc1ccc(-c2nc3ccccc3[nH]2)cc1 | inconclusive: 57.6% |
| Cc1cccc(NC(=S)N2CCn3cccc3C2c2cccnc2)c1 (configuration not stated) | inactive: -3.52% |
| O=C(c1cc(COc2cccc(C(F)(F)F)c2)on1)N1C[C@@H]2CCC[C@H]1C2 | inactive: 23.8% |
| Cc1ccccc1NC(=O)c1cc2ccccn2n1 | inactive: 38.6% |
| CCCC1=C(C(=O)OCC)C(c2cc(Cl)cc(OC)c2OCc2ccccc2)NC(=O)N1 (configuration not stated) | inconclusive: 51.2% |
| Cc1coc(C)c1C(=O)Nc1ccc2ccccc2c1 | inconclusive: 51.5% |
| O=S(=O)(c1ccccc1)c1ncc(C(F)(F)F)cc1Cl | inconclusive: 61.6% |
| COCOc1ccc(/C=C2/Oc3cc(OCOC)cc(OCOC)c3C2=O)c(OCOC)c1 | inactive: 30.1% |
| Cc1ccc(/C=C/C(=O)N2CCCN(C(=O)/C=C/c3ccc(C)cc3)CC2)cc1 | inconclusive: 50.5% |
| CC(C)CN(C(=O)COC(=O)C12CC3CC(CC(C3)C1)C2)c1c(N)n(Cc2ccccc2)c(=O)[nH]c1=O | inactive: -4.47% |
| O=C(CSc1cccc2cccnc12)N/N=C/c1cccnc1 | active: 161% |

| SMILES | activation |
| --- | --- |
| Cc1cc(C)c(OCC(=O)Nc2nc(-c3ccccn3)cs2)c(C)c1 | inactive: -25.3% |
| Cn1nnnc1SCC(=O)Nc1cccc(S(=O)(=O)N2CCCC2)c1 | inactive: -5.76% |
| CCCCCCNC(=O)CNC(=S)N(Cc1cccs1)C1CCCCC1 | inconclusive: 50.1% |
| C#CCOCCOCCOCCNc1nc(N2CCN(C(=O)CCCCCCCCCCNC(=O)[C@H](CO)n3cc(CCCSC)nn3)CC2)nc(N2CCN(C(=O)CCCCCCCCCCNC(=O)[C@H](CCCCN)n3cc(C[C@@H](C)CC)nn3)CC2)n1 | inactive: -85.3% |
| Cc1nc(-c2cccs2)sc1C(=O)O | inactive: 5.17% |
| Cc1noc(NS(=O)(=O)c2ccc(NC(=O)c3oc4ccc(F)cc4c3C)cc2)c1C | inconclusive: 56% |
| NC(=O)c1nsc(C(=O)N(Cc2ccco2)C(C(=O)NCC2CCCO2)c2ccc(O)cc2)c1N (configuration not stated) | inactive: -3.76% |
| c1ccc2sc(NN=C3CCCC3)nc2c1 | inconclusive: 54.3% |
| CCN(CC(=O)NC(C)C)Cc1nc2sc3c(c2c(=O)[nH]1)CCC3 | inconclusive: 51.5% |
| Cc1c(C(=O)/C=C/c2cccs2)oc2ccc(F)cc12 | active: 106% |
| COc1cc(NC(=O)CSc2nc(C3CC3)nc3ccccc23)cc(OC)c1 | inconclusive: 51.2% |
| C=CCN1/C(=C2/SC(=S)N(C)C2=O)Sc2ccccc21 | inactive: 15.5% |
| COc1ccc(S(=O)(=O)Nc2ccccc2C(F)(F)F)cc1 | inconclusive: 50.2% |
| COCCN1CCN(C(=O)c2cc(COc3ccc(Cl)cc3OC)on2)CC1 | inconclusive: 60.3% |
| COc1cc(OC)cc(-c2nc3ccccc3s2)c1 | inconclusive: 51.6% |
| Cc1[nH]n(-c2ccccc2)c(=O)c1/C=N/N1C(=O)c2ccc3c4c(ccc(c24)C1=O)CC3 | active: 74.9% |
| O=C(/C=C/c1nc2ccccc2s1)N1CCCCCC1 | active: 75% |
| Cc1ccc(/C=N/N=C/c2ccc(C)s2)s1 | active: 77.5% |
| CCN(C(=O)COc1cc(=O)n(CC)c2ccccc12)c1cccc(Cl)c1 | inconclusive: 50.8% |

| SMILES | activation |
| --- | --- |
| CCOc1ccc(/C=C/C(=O)c2ccccc2)cc1 | inconclusive: 50.7% |
| COc1ccccc1C(=O)Nc1nnc(SCC(=O)Nc2ccc3c(c2)oc2ccccc23)s1 | inconclusive: 50.8% |
| CC(C)(C)c1ccc(OCCn2ccccc2=O)cc1 | inconclusive: 51% |
| CCOC(=O)c1c(C)[nH]c(C)c1C(=O)COC(=O)C1CCCN1S(=O)(=O)c1ccccc1F (configuration not stated) | inconclusive: 52.7% |
| COc1ccc(C2=NN(c3ccccc3)C(c3ccc(OC)c(OC)c3)C2)cc1 (configuration not stated) | active: 70.5% |
| O=c1[nH]c(SCc2ccc(Cl)cc2)nc2[nH]ncc12 | inconclusive: 55.6% |
| CCC(C)NC(=O)CC(NS(=O)(=O)c1ccc(Cl)cc1)c1ccco1 (configuration not stated) | inconclusive: 50.1% |
| Fc1cccc(Cn2ccc(-c3ccc4c(c3)OCO4)n2)c1 | inconclusive: 51.2% |
| CN(Cc1c(C(=O)N/N=C/c2cc(F)ccc2F)nnn1-c1nonc1N)C1CCCCC1 | inactive: 1.33% |
| Cc1nc2ncnn2c(C)c1CCC(=O)NCc1ccco1 | inconclusive: 54.6% |
| COc1ccc(C(=O)CSc2nnn(-c3cccc(NC(C)=O)c3)n2)cc1 | inconclusive: 51.3% |
| Cc1cc(C)cc(OCc2nnc(SCC(=O)c3ccccc3)o2)c1 | inconclusive: 54% |
| O=C(NCc1ccco1)C(=O)NCC1OCCCN1S(=O)(=O)c1ccc(Cl)cc1 (configuration not stated) | inactive: 10.7% |
| Cc1ccc(N(CC(=O)N/N=C/c2ccc(OC3CSC3)cc2)S(=O)(=O)c2ccccc2)c(C)c1 | inconclusive: 58.2% |
| O=C(Nc1ccc(Br)cn1)c1ccc2ccccc2c1 | inconclusive: 51.5% |
| Cc1ccc(C(C#N)c2ccc3c(C(F)(F)F)cc(C(F)(F)F)nc3n2)cc1 (configuration not stated) | inactive: 16.1% |
| CC(CCC(=O)O)C1CC[C@H]2C3CCC4CC(=O)CCC4(C)[C@H]3CC(=O)C12C (some centres not stated) | active: 57.8% |
| COC(=O)COc1c(Cl)cc(C(c2c(C)[nH][nH]c2=O)c2c(C)[nH][nH]c2=O)cc1OC | inactive: 18.1% |
| COc1ccc2c(Cl)c(C(=O)NCc3ccco3)sc2c1 | active: 59.8% |

Not a retest: 3 of the compounds above.

| SMILES | activation |
| --- | --- |
| CC(C)(C)c1ccc(OCCn2ccccc2=O)cc1 | inconclusive: 51% |
| CCOC(=O)c1c(C)[nH]c(C)c1C(=O)COC(=O)C1CCCN1S(=O)(=O)c1ccccc1F (configuration not stated) | inconclusive: 52.7% |
| COc1ccc(C2=NN(c3ccccc3)C(c3ccc(OC)c(OC)c3)C2)cc1 (configuration not stated) | active: 70.5% |
